Source: PMC7673134
No constants are given. Whether binding was seen depends on the method and setting. Some entries that bind do so weakly or less than the wild type. Where a sequence is shown, tags or fusion partners need not be part of it.

The chains behind the UniProt entries cited, without tags or fusion partners.
UniProt Q94AH6: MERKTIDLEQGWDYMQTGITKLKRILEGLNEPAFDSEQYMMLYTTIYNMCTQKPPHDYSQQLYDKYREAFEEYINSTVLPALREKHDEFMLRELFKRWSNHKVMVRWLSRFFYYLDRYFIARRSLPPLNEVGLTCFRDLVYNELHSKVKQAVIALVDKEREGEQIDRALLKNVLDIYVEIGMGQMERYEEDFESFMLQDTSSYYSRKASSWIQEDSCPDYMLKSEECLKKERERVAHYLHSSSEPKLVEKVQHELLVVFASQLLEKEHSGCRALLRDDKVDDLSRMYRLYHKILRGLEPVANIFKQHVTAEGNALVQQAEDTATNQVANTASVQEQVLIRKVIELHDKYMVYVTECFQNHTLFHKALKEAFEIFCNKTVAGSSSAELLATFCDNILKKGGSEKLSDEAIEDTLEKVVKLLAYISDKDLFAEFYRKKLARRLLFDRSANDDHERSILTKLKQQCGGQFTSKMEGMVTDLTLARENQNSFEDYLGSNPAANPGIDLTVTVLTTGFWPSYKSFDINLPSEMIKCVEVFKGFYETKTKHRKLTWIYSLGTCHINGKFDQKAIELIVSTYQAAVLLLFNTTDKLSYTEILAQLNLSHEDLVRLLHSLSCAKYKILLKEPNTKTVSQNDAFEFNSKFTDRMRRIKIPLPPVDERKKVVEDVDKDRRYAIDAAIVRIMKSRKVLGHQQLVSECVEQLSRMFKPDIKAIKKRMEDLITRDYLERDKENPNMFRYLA

Target: T1, FCA fused with the binding domain (BD) (A. thaliana) (UniProt O04425)
T1 sequence: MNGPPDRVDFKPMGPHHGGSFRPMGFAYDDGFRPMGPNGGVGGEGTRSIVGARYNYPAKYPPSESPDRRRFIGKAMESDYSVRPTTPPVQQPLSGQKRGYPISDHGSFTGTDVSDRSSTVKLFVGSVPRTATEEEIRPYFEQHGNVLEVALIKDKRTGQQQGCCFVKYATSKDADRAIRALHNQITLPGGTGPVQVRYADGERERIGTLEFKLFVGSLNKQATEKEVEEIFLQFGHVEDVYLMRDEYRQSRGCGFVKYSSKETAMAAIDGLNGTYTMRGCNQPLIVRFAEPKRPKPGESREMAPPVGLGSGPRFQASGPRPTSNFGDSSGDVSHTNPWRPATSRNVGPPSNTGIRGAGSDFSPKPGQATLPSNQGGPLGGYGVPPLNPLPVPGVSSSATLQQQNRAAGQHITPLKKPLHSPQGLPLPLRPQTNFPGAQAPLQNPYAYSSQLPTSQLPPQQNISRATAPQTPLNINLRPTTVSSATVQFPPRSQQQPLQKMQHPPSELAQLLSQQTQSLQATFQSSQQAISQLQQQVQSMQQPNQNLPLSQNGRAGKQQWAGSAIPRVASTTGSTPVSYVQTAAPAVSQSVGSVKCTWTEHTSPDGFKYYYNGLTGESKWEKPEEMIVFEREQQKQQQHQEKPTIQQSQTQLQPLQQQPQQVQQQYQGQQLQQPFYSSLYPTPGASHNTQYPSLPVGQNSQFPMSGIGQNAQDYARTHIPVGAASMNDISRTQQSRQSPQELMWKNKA
Test: two-hybrid; Matchmaker Gold yeast two-hybrid; BD fusions of SSF or FCA with AD-CUL1; 5x dilution series on medium without leucine, tryptophan, adenine and histidine

Substance: AD-CUL1 (from UniProt Q94AH6 1-738)
- binding: binds
